Reference: PubChem BioAssay AID686943 (Drosophila RNAi Screening Center, 2013)
In all, the deposit lists about 23,000 reagents; this is a random part of those that have a named target and a result. 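Extra replicates exist only for a retested subset of genes; insulin dose and duration not given; both raised and lowered dpERK matter.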 A plus sign joins genes that one reagent is predicted to hit. Not all columns of the deposit are shown. The record does not give: the amount of reagent, the time to read-out.

Purpose: 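Fly genes whose loss alters ERK activation after insulin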 (primary screen)
Cell system: Drosophila S2R+ haemocyte-like cells expressing YFP-tagged ERK (Rolled)
Knock-down reagent: long dsRNA against Drosophila genes
Challenge: insulin stimulation versus unstimulated cells; dose and duration not given
Detection: 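Per-plate z-scores of phospho-ERK immunostaining normalised to YFP-tagged ERK, measured with and without insulin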
Reading the numbers: replicate 1, z-score of dpERK with insulin and replicate 2, z-score of dpERK with insulin: higher = more active ERK per ERK-YFP after insulin

CYTB (retired record) [SID104201064]: replicate 1, z-score of dpERK with insulin = 0.17; replicate 2, z-score of dpERK with insulin = -0.4
CG6693 [SID104195889]: replicate 1, z-score of dpERK with insulin = 0.55; replicate 2, z-score of dpERK with insulin = 1.07
CG4702 [SID104195418]: replicate 1, z-score of dpERK with insulin = 0.29; replicate 2, z-score of dpERK with insulin = -0.03
TTLL1A (Tubulin tyrosine ligase-like 1A) [SID104199913]: replicate 1, z-score of dpERK with insulin = 0.06; replicate 2, z-score of dpERK with insulin = 0.25
CG5217 [SID104195532]: replicate 1, z-score of dpERK with insulin = -0.17; replicate 2, z-score of dpERK with insulin = 0.52
Dys + snoRNA:Me18S-A1374 [SID104196024]: replicate 1, z-score of dpERK with insulin = -0.37; replicate 2, z-score of dpERK with insulin = -0.8
CG17327 [SID104195017]: replicate 1, z-score of dpERK with insulin = -0.03; replicate 2, z-score of dpERK with insulin = -1.59
CG31224 [SID104195064]: replicate 1, z-score of dpERK with insulin = -1.31; replicate 2, z-score of dpERK with insulin = -1.28
CG31224 [SID104196082]: replicate 1, z-score of dpERK with insulin = 0.11; replicate 2, z-score of dpERK with insulin = -0.38
bin3 (bicoid-interacting protein 3) [SID104184711]: replicate 1, z-score of dpERK with insulin = -2.55; replicate 2, z-score of dpERK with insulin = -1.41
Cyp49a1 (Cytochrome P450 49a1) [SID104186529]: replicate 1, z-score of dpERK with insulin = -0.04; replicate 2, z-score of dpERK with insulin = -0.33
Cyp49a1 (Cytochrome P450 49a1) [SID104187159]: replicate 1, z-score of dpERK with insulin = 0.14; replicate 2, z-score of dpERK with insulin = 0.18
jvl (javelin-like) [SID104192845]: replicate 1, z-score of dpERK with insulin = -5.65; replicate 2, z-score of dpERK with insulin = -3.86
jvl (javelin-like) [SID104195287]: replicate 1, z-score of dpERK with insulin = -0.26; replicate 2, z-score of dpERK with insulin = -0.11
vn (vein) [SID104191200]: replicate 1, z-score of dpERK with insulin = -1.16; replicate 2, z-score of dpERK with insulin = -0.57
mRpL35 (mitochondrial ribosomal protein L35) [SID104194378]: replicate 1, z-score of dpERK with insulin = -0.13; replicate 2, z-score of dpERK with insulin = -0.68
dyw (daywake) [SID104198020]: replicate 1, z-score of dpERK with insulin = -0.41; replicate 2, z-score of dpERK with insulin = 2.17
CG4133 [SID104180431]: replicate 1, z-score of dpERK with insulin = -0.16; replicate 2, z-score of dpERK with insulin = -0.44
Mrp5 (Multidrug resistance protein 5) [SID104195389]: replicate 1, z-score of dpERK with insulin = -0.95; replicate 2, z-score of dpERK with insulin = 0
Mrp5 (Multidrug resistance protein 5) [SID104195390]: replicate 1, z-score of dpERK with insulin = 0.42; replicate 2, z-score of dpERK with insulin = -0.45
CG12481 [SID104199253]: replicate 1, z-score of dpERK with insulin = -0.34; replicate 2, z-score of dpERK with insulin = -0.22
Inx5 (Innexin 5) [SID104199843]: replicate 1, z-score of dpERK with insulin = 1.29; replicate 2, z-score of dpERK with insulin = 0.56
Ilp5 (Insulin-like peptide 5) [SID104188790]: replicate 1, z-score of dpERK with insulin = -0.08; replicate 2, z-score of dpERK with insulin = 0.38
Wdr92 (WD repeat domain 92) [SID104189979]: replicate 1, z-score of dpERK with insulin = 0.54; replicate 2, z-score of dpERK with insulin = -0.66
Cpr65Az (Cuticular protein 65Az) [SID104189674]: replicate 1, z-score of dpERK with insulin = 1.38; replicate 2, z-score of dpERK with insulin = 1.07
Cpr65Az (Cuticular protein 65Az) [SID104201633]: replicate 1, z-score of dpERK with insulin = -0.05; replicate 2, z-score of dpERK with insulin = 0.14
CG31751 [SID104182256]: replicate 1, z-score of dpERK with insulin = -0.31; replicate 2, z-score of dpERK with insulin = 0.8
CG31751 [SID104182257]: replicate 1, z-score of dpERK with insulin = -0.29; replicate 2, z-score of dpERK with insulin = 0.24
CG6527 [SID104190451]: replicate 1, z-score of dpERK with insulin = 0.27; replicate 2, z-score of dpERK with insulin = 0.37
Psf3 (Partner of Sld Five 3) [SID104198008]: replicate 1, z-score of dpERK with insulin = 1.28; replicate 2, z-score of dpERK with insulin = 0.75
Psf3 (Partner of Sld Five 3) [SID104201217]: replicate 1, z-score of dpERK with insulin = 0.8; replicate 2, z-score of dpERK with insulin = 1.32

Reformatted: results already given
{"target":"Cpr65Az (Cuticular protein 65Az)","PubChem SID":"SID104189674","replicate 1, z-score of dpERK with insulin":1.38,"replicate 2, z-score of dpERK with insulin":1.07}
{"target":"Cpr65Az (Cuticular protein 65Az)","PubChem SID":"SID104201633","replicate 1, z-score of dpERK with insulin":-0.05,"replicate 2, z-score of dpERK with insulin":0.14}
